From PMC13534531

Chains of the proteins cited; added tags and fusions are not shown. Lines headed by an entry give the natural chain unless they say otherwise; changes in a name come on top.
UniProt P62814: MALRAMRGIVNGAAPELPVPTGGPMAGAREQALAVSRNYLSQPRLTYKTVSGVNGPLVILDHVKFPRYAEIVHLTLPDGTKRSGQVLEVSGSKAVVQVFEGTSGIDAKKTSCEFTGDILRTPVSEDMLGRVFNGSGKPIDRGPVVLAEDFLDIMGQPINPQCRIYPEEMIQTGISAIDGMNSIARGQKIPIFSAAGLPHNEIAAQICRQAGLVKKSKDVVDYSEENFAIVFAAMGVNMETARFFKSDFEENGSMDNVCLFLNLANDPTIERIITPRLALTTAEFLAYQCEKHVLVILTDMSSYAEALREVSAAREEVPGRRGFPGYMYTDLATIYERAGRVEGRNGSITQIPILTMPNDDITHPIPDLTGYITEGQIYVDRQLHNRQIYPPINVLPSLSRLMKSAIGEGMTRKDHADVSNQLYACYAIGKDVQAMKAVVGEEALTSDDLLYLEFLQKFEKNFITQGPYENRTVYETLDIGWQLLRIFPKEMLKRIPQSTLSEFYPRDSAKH
UniProt Q9JHF5: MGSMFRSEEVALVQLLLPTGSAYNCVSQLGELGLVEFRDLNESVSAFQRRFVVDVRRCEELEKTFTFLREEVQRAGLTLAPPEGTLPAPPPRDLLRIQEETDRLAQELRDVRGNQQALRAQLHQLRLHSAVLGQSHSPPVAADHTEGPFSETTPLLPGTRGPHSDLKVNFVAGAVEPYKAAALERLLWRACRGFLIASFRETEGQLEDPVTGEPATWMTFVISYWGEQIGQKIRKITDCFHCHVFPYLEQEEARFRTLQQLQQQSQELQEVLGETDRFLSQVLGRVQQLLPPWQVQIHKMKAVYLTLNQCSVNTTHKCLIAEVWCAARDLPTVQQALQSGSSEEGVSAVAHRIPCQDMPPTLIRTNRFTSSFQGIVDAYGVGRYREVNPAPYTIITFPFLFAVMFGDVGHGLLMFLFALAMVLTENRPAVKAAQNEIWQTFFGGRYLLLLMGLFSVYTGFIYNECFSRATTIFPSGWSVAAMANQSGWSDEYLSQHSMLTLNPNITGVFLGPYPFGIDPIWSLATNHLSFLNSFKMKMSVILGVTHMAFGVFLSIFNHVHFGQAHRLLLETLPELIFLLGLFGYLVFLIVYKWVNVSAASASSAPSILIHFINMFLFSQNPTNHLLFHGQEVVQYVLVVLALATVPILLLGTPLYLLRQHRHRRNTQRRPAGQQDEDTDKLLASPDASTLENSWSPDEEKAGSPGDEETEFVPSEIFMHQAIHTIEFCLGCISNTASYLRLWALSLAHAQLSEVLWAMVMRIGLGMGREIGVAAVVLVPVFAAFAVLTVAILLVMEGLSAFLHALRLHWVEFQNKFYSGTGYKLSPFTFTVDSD

Biological target: HA-V1B2 (HA-tagged V-ATPase V1 domain subunit B2, Atp6v1b2) (mouse) (UniProt P62814)
Test: co-IP; anti-HA magnetic beads, HA-V1B2 as bait; lysates of iCas9 MEFs expressing HA-V1B2 and Flag-Voa1, Flag-Voa2 or Flag-Voa3, control or Wdr7, Dmxl1 or Dmxl2 iKO; V1-Vo IP buffer (40 mM HEPES pH 7.4, 150 mM NaCl, 2 mM EDTA, 2.5 mM MgCl2, 5% glycerol, 1% Triton X-100), 2 h at 4 °C; immunoblotting

binding: binds
Substance: Flag-Voa3 (Flag-tagged V-ATPase Vo subunit a3, Atp6v0a3 / Tcirg1) (from UniProt Q9JHF5)

Results are given in words; binding and its absence hold for the method and conditions named. Binding seen in cells or lysates may run through a third protein. Binding calls can cover weak binding; strength is not graded here.
